From PubChem BioAssay AID602313 (National Center for Advancing Translational Sciences (NCATS), 2012)
Hit rate of the full screen: of about 390,000 compounds, about 760 (0.19%) were called active. Inconclusive means that the source gave no clear call. Such entries were picked first, then a sample of the others. The call rests on the fitted dose curve; in most records, active means well fitted inhibition curve with a large enough effect; inconclusive means small, poorly fitted or top-dose-only effect; inactive means flat fitted curve, though single readings scatter. Potencies beside an inconclusive call are fits to weak or partial responses and may not hold up.

Assay: qHTS for Inhibitors of Vif-A3F Interactions: qHTS; further: nearly all actives have a fitted effect of over 65% in size
Settings: HeLa A3F-eYFP + Vif (tagged APOBEC3F with the HIV-1 protein that degrades it), YFP fluorescence increase; series mostly up to 46.1 µM
How it was run: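 Fluorescence increase (Ex 488/Em 500-530) after overnight compound treatment at 37 deg C flags inhibition of Vif-driven A3F-eYFP loss in stable HeLa A3F-eYFP/Vif cells seeded overnight beforehand.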
Potency means the concentration at half of the fitted maximal effect.

Q: With C/C(=N\Nc1cccc([N+](=O)[O-])c1)c1ccccc1O as the compound, how does the Potency read?
A: inconclusive: 0.282 µM [inhibitor, full curve, poor fit]

Q: Which Potency does the source give for O=C(NC(=S)Nc1ccc(N2CCCCC2)c(Cl)c1)c1cccs1 here?
A: inconclusive: 22.4 µM [inhibitor, single point]

Q: For CCOC(=O)c1cc2c(=O)n3ccccc3nc2n(Cc2ccco2)c1=NC(=O)c1ccc(Br)cc1, which Potency is on record?
A: inconclusive: 11.2 µM [inhibitor, partial curve, poor fit]

Q: Which Potency does the source give for c1ccc(N2CCN(c3nc4ccccc4n4nnnc34)CC2)cc1 here?
A: inconclusive: 35.5 µM [inhibitor, single point]

Q: With C=CC[C@H](CC(=O)N(CCO)Cc1ccccc1)C(=O)N[C@@H](C)COC(=O)[C@@H](CC=C)Cc1ccc(F)cc1 as the compound, how does the Potency read?
A: inactive

Q: Which Potency does the source give for CC1CCc2c(nc3ncnn3c2N2CCN(c3ccccc3)CC2)C1 (stereo unspecified) here?
A: inactive

Q: Which Potency does the source give for CCCCNC(=S)N/N=C/c1ccc(C#N)cc1 here?
A: inconclusive: 28.2 µM [inhibitor, single point]

Q: For COc1ccc(Nc2nc3ccccc3nc2NS(=O)(=O)c2ccc(C)cc2)c(OC)c1, which Potency is on record?
A: inconclusive: 20 µM [inhibitor, partial curve, poor fit]

Q: With COc1ccc2c(c1)c1ccc3c(c1n2C)C(=O)C=CC3=O as the compound, how does the Potency read?
A: inconclusive: 6.31 µM [inhibitor, single point]

Q: Which Potency does the source give for O=C(NCc1ccc(Cl)cc1)c1cnccn1 here?
A: inactive

Q: With CC(C(=O)N1CCOCC1)N1C(=O)c2cccc3cccc(c23)C1=O (stereo unspecified) as the compound, how does the Potency read?
A: inconclusive: 3.98 µM [inhibitor, single point]

Q: For CCc1ccc([C@@H]2CC=C(C(=O)O)[C@H](c3ccc(Cl)cc3)N2S(=O)(=O)c2ccc(C)cc2)cc1, which Potency is on record?
A: inconclusive: 35.5 µM [inhibitor, single point]

Q: Which Potency does the source give for CCc1ccc(S(=O)(=O)/N=C2\C=C(NS(=O)(=O)c3ccccc3)C(=O)c3ccccc32)cc1 here?
A: inactive

Q: With COc1ccc(-c2noc(CN3CCOCC3)n2)cc1OC as the compound, how does the Potency read?
A: inconclusive: 5.62 µM [inhibitor, single point]

Q: For COc1ccc(SCc2cc(=O)c3ccc(C)c(C)c3[nH]2)cc1, which Potency is on record?
A: inconclusive: 35.5 µM [inhibitor, single point]

Q: With COc1ccccc1NC(=O)CCc1nc2sc3c(c2c(=O)[nH]1)CCCC3 as the compound, how does the Potency read?
A: inconclusive: 35.5 µM [inhibitor, partial curve, poor fit]

Q: Which Potency does the source give for Cn1c2ccc(F)cc2c2nc3ccccc3nc21 here?
A: inconclusive: 35.5 µM [inhibitor, single point]

Q: For NNC(=O)c1cc(-c2ccc(N)cc2)nc2ccc(Br)cc12, which Potency is on record?
A: inconclusive: 15.8 µM [inhibitor, partial curve, poor fit]

Q: Which Potency does the source give for CCOC(=O)c1ccc(N2C(=O)c3n[nH]c(-c4ccco4)c3C2c2ccc(OC)cc2OC)cc1 (stereo unspecified) here?
A: inactive

Q: With O=C1OCCN1C(=O)[C@H]1[C@H](c2ccc(F)cc2)C(c2cccc(Cl)c2)=NN1c1ccccc1 as the compound, how does the Potency read?
A: inactive

Q: Which Potency does the source give for CCCn1c(SCc2nc(N)nc(N3CCCCC3)n2)nc2c1c(=O)n(C)c(=O)n2C here?
A: inconclusive: 35.5 µM [inhibitor, single point]

Q: Which Potency does the source give for CC1CN(C(=O)Nc2ccc(C(=O)NCc3ccccc3F)cc2)c2ccccc2S1 (stereo unspecified) here?
A: inactive

Q: With O=C(O)CCN1C(=O)c2ccccc2Sc2ncccc21 as the compound, how does the Potency read?
A: inactive

Q: For O=C(NCc1ccccc1Cl)c1cccc2c1C(=O)c1ccc(-c3ccc(OC(F)(F)F)cc3)cc1S2(=O)=O, which Potency is on record?
A: active: 12.6 µM

Q: With CCOc1cccc2cc(-c3nnc(NCc4ccc5c(c4)OCO5)s3)c(=O)oc12 as the compound, how does the Potency read?
A: inconclusive: 3.16 µM [inhibitor, single point]

Q: With Cc1ccc(C(=O)NCC(=O)N(C)Cc2cccc(F)c2)s1 as the compound, how does the Potency read?
A: inconclusive: 2.51 µM [inhibitor, partial curve, poor fit]

Q: With O=C(Nc1ccc(N2CCN(c3ncccc3C(F)(F)F)CC2)nc1)c1cccs1 as the compound, how does the Potency read?
A: inconclusive: 35.5 µM [inhibitor, single point]

Q: For O=C1CCCN1CCC(=O)N1CCCC(Nc2ccc(F)cc2)C1 (stereo unspecified), which Potency is on record?
A: inconclusive: 0.891 µM [inhibitor, partial curve, poor fit]

Q: Which Potency does the source give for CC(C)=CCC/C(C)=C/CNC(=O)C[C@H]1C[C@H](C(=O)N2CCOCC2)[C@@]2(CCC3CCCC3)c3[nH]c4cc(-c5ccco5)ccc4c3CCN2C1=O here?
A: inconclusive: 22.4 µM [inhibitor, single point]

Q: For CCc1ccc(C2=NN(S(C)(=O)=O)C(c3cccs3)C2)cc1 (stereo unspecified), which Potency is on record?
A: inconclusive: 31.6 µM [inhibitor, single point]

Q: For CCN1CCc2c(sc(NC(=O)c3ccc(S(=O)(=O)N(C)C4CCCCC4)cc3)c2C(N)=O)C1, which Potency is on record?
A: inconclusive: 35.5 µM [inhibitor, single point]

Q: With CSc1ccc(CNC(=O)Cn2c(-c3cccs3)cc3cc(F)ccc32)cc1 as the compound, how does the Potency read?
A: inconclusive: 17.8 µM [inhibitor, partial curve, poor fit]

Q: With CC(=O)Nc1ccc(Nc2nc(-c3sc(C)nc3C)cs2)cc1 as the compound, how does the Potency read?
A: inactive

Q: For CNC(=S)N/N=C/c1ccc(N2CCOCC2)s1, which Potency is on record?
A: active: 1.12 µM

Q: With O=C1Nc2ccccc2C1Cc1ccccn1 (stereo unspecified) as the compound, how does the Potency read?
A: inconclusive: 22.4 µM [inhibitor, single point]

Q: With CC(C)CN=CC1=C(O)c2ccccc2C1=O as the compound, how does the Potency read?
A: inconclusive: 15.8 µM [inhibitor, partial curve, poor fit]

Q: For COc1ccc(OC)c(/C=N/NC(=O)CSc2cc(C)nc3c(OC)cccc23)c1, which Potency is on record?
A: inconclusive: 35.5 µM [inhibitor, single point]

Q: For COc1ccccc1/C=N/NC(=O)NC12CC3CC(CC(C3)C1)C2, which Potency is on record?
A: inconclusive: 11.2 µM [inhibitor, partial curve, poor fit]

Q: With Cc1cccc(CN2CCN(c3nc4nonc4nc3NC3CC3)CC2=O)c1 as the compound, how does the Potency read?
A: inactive

Q: With NS(=O)(=O)c1ccc(CNC(=O)c2cc(-c3ccccc3)nc3ccccc23)cc1 as the compound, how does the Potency read?
A: inconclusive: 35.5 µM [inhibitor, single point]

Q: For O=Cc1cn(-c2ccccc2)nc1-c1cc2c(ccc3ccccc32)oc1=O, which Potency is on record?
A: inconclusive: 35.5 µM [inhibitor, single point]
